This is an account of results in PubChem BioAssay AID194 (DTP/NCI, 2004).

SMILES strings stand for the structures. The list does not hold the whole screen: it is rich in T/C values a quarter to a half above the control, in often repeated tests (any T/C) and in doses without a T/C. Other doses and runs of a compound stand elsewhere. T/C: endpoint of the treated group in % of that of the vehicle group. Some doses have a count of surviving animals in place of a T/C: the source holds a T/C of zero for them, seemingly a mark for toxic or unscored doses. Some survivor counts are full or nearly so, which does not show that the dose was tolerated: the source hardly ever lists a survival T/C far under the control, and the zero likely stands for such cases as well. Counts of survivors are from the toxicity check (mostly the fifth day) where no day follows; animals may have died later. Schedule codes are those of the source, taken here to give the interval after Q, in days (D) or hours (H), and the number of doses after X. Some schedules carry Z or #; the key to these is not given. Some doses were run more than once; their values stand side by side, smallest first. For survival time, this PubChem deposit counts one and a half times the control or more as active, and values a quarter to a half above the control carry no call in these data; other NCI protocols may use other cut-offs. Some T/C values carry the count of animals alive at the toxicity check (mostly the fifth day); where none is given, no animal had died by that day.

For this experiment, the system named is BDF1 mice, B16 melanoma s.c., survival/tumor T/C. Nature of the experiment: NCI In Vivo Anticancer Drug Screen. Data for tumor model B16 Melanoma (subcutaneous) in B6D2F1 (BDF1) mice. To be noted: T/C endpoint: median survival time, higher T/C = longer survival. Here is the method: The antitumor activity of compounds was measured in mice bearing transplantable tumors. Survival or tumor size were measured and the results are expressed as the measurement made in the treated group (T) divided by the measurement made in the vehicle treated control group (C). The tumor model used in this assay is B16 Melanoma (subcutaneous) in B6D2F1 (BDF1) mice

[1] abbreviates: dose: 300.0 mg/kg/injection, schedule: Q04DX003 (ip), vehicle: saline.
Setting [2] is: dose: 50.0 mg/kg/injection, schedule: Q01DX009 (ip), vehicle: Klucel (hydroxypropylcellulose) (HPC).
Where [3] appears, read: dose: 100.0 mg/kg/injection, schedule: Q01DX009 (ip), vehicle: Klucel (hydroxypropylcellulose) (HPC).
Where [4] appears, read: dose: 8.0 mg/kg/injection, schedule: Q01DX009 (ip), vehicle: saline.

`CO[C@H]1/C=C/O[C@@]2(C)Oc3c(C)c(O)c4c(O)c(c(/C=N/N5C(C)CN(Cc6ccccc6)CC5C)c(O)c4c3C2=O)NC(=O)/C(C)=C\C=C\[C@H](C)[C@H](O)[C@@H](C)[C@@H](O)[C@@H](C)[C@H](OC(C)=O)[C@@H]1C` (stereo partly specified): the survivor count runs as follows: (dose: 25.0 mg/kg/injection, schedule: Q02DX Z (oral), vehicle: Klucel (hydroxypropylcellulose) (HPC)) 10 of 10; (dose: 400.0 mg/kg/injection, schedule: Q02DX Z (oral), vehicle: Klucel (hydroxypropylcellulose) (HPC)) 10 of 10; (dose: 800.0 mg/kg/injection, schedule: Q02DX Z (oral), vehicle: Klucel (hydroxypropylcellulose) (HPC)) 10 of 10; (dose: 1600.0 mg/kg/injection, schedule: Q02DX Z (oral), vehicle: Klucel (hydroxypropylcellulose) (HPC)) 10 of 10.
With `O=c1[nH]c(=O)n([C@H]2CCCO2)cc1F`, the survivor count was 10 of 10 (dose: 108.0 mg/kg/injection, schedule: Q01DX009 (ip), vehicle: saline); 10 of 10 under setting [1]; 10 of 10 (dose: 500.0 mg/kg/injection, schedule: Q04DX003 (ip), vehicle: saline); 10 of 10 (dose: 833.0 mg/kg/injection, schedule: Q04DX003 (ip), vehicle: saline).
Take `Cn1ncc2c(N)ncnc21`: the survivor count (dose: 12.5 mg/kg/injection, schedule: Q01DX009 (ip), vehicle: Klucel (hydroxypropylcellulose) (HPC)) is 10 of 10; the survivor count (dose: 25.0 mg/kg/injection, schedule: Q01DX009 (ip), vehicle: Klucel (hydroxypropylcellulose) (HPC)) is given as 10 of 10; the survivor count under setting [2] is given as 10 of 10; the survivor count under setting [3] is given as 3 of 10.
In the case of `C[C@@H](CN1CC(=O)NC(=O)C1)N1CC(=O)NC(=O)C1`, the T/C runs as follows: (dose: 8.0 mg/kg/injection, schedule: Q01DX009 (ip), vehicle: Klucel (hydroxypropylcellulose) (HPC)) 131 % of control; (dose: 8.0 mg/kg/injection, schedule: Q01DX009 (ip), vehicle: water) 131 % of control; (dose: 32.0 mg/kg/injection, schedule: Q01DX009 (ip), vehicle: water) 139 % of control; (dose: 64.0 mg/kg/injection, schedule: Q01DX009 (ip), vehicle: water) 142 % of control; (dose: 128.0 mg/kg/injection, schedule: Q01DX009 (ip), vehicle: water) 126 % of control. Besides, the survivor count (dose: 50.0 mg/kg/injection, schedule: Q04DX003 (ip), vehicle: saline) was 10 of 10.
Turning to `O=NN(CCCl)C(=O)NC1CCC(=O)NC1=O` (stereo unspecified), the T/C was 145 % of control (dose: 1.0 mg/kg/injection, schedule: Q01DX009 (ip), vehicle: Klucel (hydroxypropylcellulose) (HPC)) and 132 % of control [9 of 10 alive on day 55] (dose: 2.59 mg/kg/injection, schedule: Q01DX007 (ip), vehicle: Klucel (hydroxypropylcellulose) (HPC)). Further, the survivor count reads like this: (dose: 12.0 mg/kg/injection, schedule: Q01DX007 (ip), vehicle: Klucel (hydroxypropylcellulose) (HPC)) 1 of 10 on day 55; (dose: 31.0 mg/kg/injection, schedule: Q01DX001 (ip), vehicle: gum acacia) 5 of 10.
As to `CC(c1ccccc1)N1C(=O)CSC1=S` (stereo unspecified), the T/C was 135 % of control under setting [2]; 131 % of control under setting [3]; 135 % of control (dose: 200.0 mg/kg/injection, schedule: Q01DX009 (ip), vehicle: Klucel (hydroxypropylcellulose) (HPC)).
Consider `CS(C)=O`, for which the survivor count (dose: 1.5 grams/kg/injection, schedule: Q01DX009 (ip), vehicle: saline) is given as 10 of 10.
With `COc1ccc(C[C@H](N)C(=O)NC2C(CO)OC(n3cnc4c(N(C)C)ncnc43)C2O)cc1` (stereo partly specified), the T/C was 137 % of control under setting [4] and 148 % of control (dose: 16.0 mg/kg/injection, schedule: Q01DX009 (ip), vehicle: saline). In addition, the survivor count is 5 of 5 (dose: 32.0 mg/kg/injection, schedule: Q01DX009 (ip), vehicle: saline); 3 of 5 and 5 of 5 (dose: 128.0 mg/kg/injection, schedule: Q01DX009 (ip), vehicle: saline); 0 of 5 (dose: 256.0 mg/kg/injection, schedule: Q01DX009 (ip), vehicle: saline).
Take `CC1=C(/C=C/C(C)=C/C=C/C(C)=C/C(=O)O)C(C)(C)CCC1`: the survivor count by setting is: (dose: 8.0 mg/kg/injection, schedule: Q01DX009 (ip), vehicle: saline with Tween-80) 10 of 10; (dose: 16.0 mg/kg/injection, schedule: Q01DX009 (ip), vehicle: saline with Tween-80) 10 of 10; (dose: 32.0 mg/kg/injection, schedule: Q01DX009 (ip), vehicle: saline with Tween-80) 10 of 10; (dose: 64.0 mg/kg/injection, schedule: Q01DX009 (ip), vehicle: saline with Tween-80) 10 of 10; (dose: 128.0 mg/kg/injection, schedule: Q01DX009 (ip), vehicle: saline with Tween-80) 10 of 10.
In the case of `O=[N+]([O-])O.[Ga]`, the survivor count by setting is: under setting [4], 10 of 10; under setting [1], 9 of 9; (dose: 450.0 mg/kg/injection, schedule: Q04DX003 (ip), vehicle: saline) 9 of 10; (dose: 900.0 mg/kg/injection, schedule: Q01DX001 (ip), vehicle: saline) 5 of 10. Also, the T/C (dose: 60.0 mg/kg/injection, schedule: Q01DX009 (ip), vehicle: saline) was 130 % of control.
